PubChem BioAssay AID1259405 | NCATS – 2018

- Aim: 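Silenced genes that increase secreted GFP made by CHO cells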 (primary screen)
- System: Chinese hamster CHO-K1 ovary cells with stable secreted eGFP expression
- Knock-down reagent: single siRNA against mouse genes, 0.8 pmol siRNA per well (2 µl of 400 nM stock)
- Duration: 3 days
- Read-out: 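Per-well intracellular GFP measured by laser scanning cytometry, plus viability from ATP luminescence, each relative to plate median of non-targeting control wells, in %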
- Direction: GFP, % of control: higher = more GFP per well, higher productivity; viability (ATP), % of control: higher = more viable cells (more ATP)
- Rule for the call: 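a knock-down is called active if GFP reaches 120% or more of non-targeting control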
Here is an unselected part of about 50,000 deposited reagents. In the full data, about 4,000 (8%) are marked active. 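Mouse siRNA library applied to hamster cells; one well for each siRNA.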 Unmarked entries are inactive. Reagents against one gene are numbered here.

After knock-down of Zmynd11 (zinc finger, MYND domain containing 11) #1 the results were GFP, % of control 69.3; viability (ATP), % of control 74.4.
Zmynd11 (zinc finger, MYND domain containing 11) #2 showed GFP, % of control 148 (active); viability (ATP), % of control 119.
Depletion of Zmynd11 (zinc finger, MYND domain containing 11) #3 came out at: GFP, % of control 117; viability (ATP), % of control 63.6.
For Spock2 #1, the values are GFP, % of control 56.7; viability (ATP), % of control 61.1.
With knock-down of Spock2 #2 the results were GFP, % of control 105; viability (ATP), % of control 102.
Against Spock2 #3 the deposit lists GFP, % of control 52.5; viability (ATP), % of control 74.3.
With knock-down of Abcb9 (ATP-binding cassette, sub-family B member 9) #1 the results were GFP, % of control 50.9; viability (ATP), % of control 54.5.
For Abcb9 (ATP-binding cassette, sub-family B member 9) #2, the entry reads GFP, % of control 77.9; viability (ATP), % of control 89.2.
Against Abcb9 (ATP-binding cassette, sub-family B member 9) #3, the values are GFP, % of control 78.8; viability (ATP), % of control 88.5.
Det1 (DET1 partner of COP1 E3 ubiquitin ligase) #1 scored GFP, % of control 62.3; viability (ATP), % of control 64.1.
Against Det1 (DET1 partner of COP1 E3 ubiquitin ligase) #2, the entry reads GFP, % of control 59.7; viability (ATP), % of control 66.3.
For Det1 (DET1 partner of COP1 E3 ubiquitin ligase) #3 the deposit lists GFP, % of control 85.9; viability (ATP), % of control 77.5.
Knock-down of Lsm4 #1 resulted in: GFP, % of control 111; viability (ATP), % of control 82.3.
With knock-down of Lsm4 #2, the record shows GFP, % of control 45.7; viability (ATP), % of control 64.2.
Against Lsm4 #3 the deposit lists GFP, % of control 113; viability (ATP), % of control 98.9.
Sidt2 (SID1 transmembrane family, member 2) #1 gave GFP, % of control 83.9; viability (ATP), % of control 113.
Against Sidt2 (SID1 transmembrane family, member 2) #2, the values are GFP, % of control 77.2; viability (ATP), % of control 65.9.
Knock-down of Sidt2 (SID1 transmembrane family, member 2) #3 resulted in: GFP, % of control 177 (active); viability (ATP), % of control 141.
Silencing of Trak2 (trafficking protein, kinesin binding 2) #1 came out at: GFP, % of control 80.6; viability (ATP), % of control 86.7.
Against Trak2 (trafficking protein, kinesin binding 2) #2 the deposit lists GFP, % of control 54; viability (ATP), % of control 31.2.
Trak2 (trafficking protein, kinesin binding 2) #3 scored GFP, % of control 98.9; viability (ATP), % of control 47.7.
After knock-down of Pum1 (pumilio RNA-binding family member 1) #1 the results were GFP, % of control 53.8; viability (ATP), % of control 37.5.
With knock-down of Pum1 (pumilio RNA-binding family member 1) #2, the record shows GFP, % of control 65.6; viability (ATP), % of control 79.7.
Depletion of Pum1 (pumilio RNA-binding family member 1) #3 resulted in: GFP, % of control 111; viability (ATP), % of control 59.1.
With knock-down of Arhgap32 (Rho GTPase activating protein 32) #1, the record shows GFP, % of control 97.6; viability (ATP), % of control 78.6.
Knock-down of Arhgap32 (Rho GTPase activating protein 32) #2 gave: GFP, % of control 83.9; viability (ATP), % of control 89.5.
Depletion of Arhgap32 (Rho GTPase activating protein 32) #3 gave: GFP, % of control 77.4; viability (ATP), % of control 64.3.
Silencing of Cfap65 (cilia and flagella associated protein 65) #1 resulted in: GFP, % of control 96.6; viability (ATP), % of control 62.3.
For Cfap65 (cilia and flagella associated protein 65) #2, the values are GFP, % of control 65.8; viability (ATP), % of control 71.3.
Depletion of Cfap65 (cilia and flagella associated protein 65) #3 came out at: GFP, % of control 56.8; viability (ATP), % of control 56.3.
Against Thnsl1 (threonine synthase-like 1 (bacterial)) #1, the entry reads GFP, % of control 118; viability (ATP), % of control 104.
After knock-down of Thnsl1 (threonine synthase-like 1 (bacterial)) #2, the screen gave GFP, % of control 60.5; viability (ATP), % of control 112.
For Thnsl1 (threonine synthase-like 1 (bacterial)) #3, the values are GFP, % of control 77.9; viability (ATP), % of control 96.3.
After knock-down of Fthl17e (ferritin, heavy polypeptide-like 17, member E) #1, the screen gave GFP, % of control 83.3; viability (ATP), % of control 62.7.
After knock-down of Fthl17e (ferritin, heavy polypeptide-like 17, member E) #2 the results were GFP, % of control 88.7; viability (ATP), % of control 70.8.
Against Fthl17e (ferritin, heavy polypeptide-like 17, member E) #3 the deposit lists GFP, % of control 36.9; viability (ATP), % of control 34.8.
For Mtfr2 (mitochondrial fission regulator 2) #1, the entry reads GFP, % of control 93.6; viability (ATP), % of control 85.4.
Mtfr2 (mitochondrial fission regulator 2) #2 scored GFP, % of control 50; viability (ATP), % of control 74.9.
With knock-down of Mtfr2 (mitochondrial fission regulator 2) #3, the record shows GFP, % of control 44.9; viability (ATP), % of control 71.1.
Against Mill1 (MHC I like leukocyte 1) #1, the entry reads GFP, % of control 58.3; viability (ATP), % of control 70.6.
For Mill1 (MHC I like leukocyte 1) #2, the values are GFP, % of control 40.3; viability (ATP), % of control 72.4.
Against Mill1 (MHC I like leukocyte 1) #3, the values are GFP, % of control 46.6; viability (ATP), % of control 64.6.
Knock-down of Tnni3k (TNNI3 interacting kinase) #1 resulted in: GFP, % of control 42.5; viability (ATP), % of control 36.4.
Tnni3k (TNNI3 interacting kinase) #2 showed GFP, % of control 53.6; viability (ATP), % of control 74.
After knock-down of Tnni3k (TNNI3 interacting kinase) #3 the results were GFP, % of control 66.2; viability (ATP), % of control 74.5.
For Gsta2 (glutathione S-transferase, alpha 2 (Yc2)) #1 the deposit lists GFP, % of control 61.6; viability (ATP), % of control 88.9.
Gsta2 (glutathione S-transferase, alpha 2 (Yc2)) #2 showed GFP, % of control 65.4; viability (ATP), % of control 90.
After knock-down of Gsta2 (glutathione S-transferase, alpha 2 (Yc2)) #3, the screen gave GFP, % of control 51.9; viability (ATP), % of control 61.7.
Clcn5 (chloride channel, voltage-sensitive 5) #1 gave GFP, % of control 89.3; viability (ATP), % of control 85.
Clcn5 (chloride channel, voltage-sensitive 5) #2 showed GFP, % of control 88.6; viability (ATP), % of control 91.6.
Against Clcn5 (chloride channel, voltage-sensitive 5) #3, the values are GFP, % of control 58; viability (ATP), % of control 77.
Knock-down of Mtmr6 (myotubularin related protein 6) #1 came out at: GFP, % of control 88.3; viability (ATP), % of control 87.1.
After knock-down of Mtmr6 (myotubularin related protein 6) #2 the results were GFP, % of control 61.1; viability (ATP), % of control 70.6.
Mtmr6 (myotubularin related protein 6) #3 gave GFP, % of control 98.8; viability (ATP), % of control 107.

Records listed so far marked active, once more:
Zmynd11 (zinc finger, MYND domain containing 11) #2: GFP, % of control = 148 (active); viability (ATP), % of control = 119
Sidt2 (SID1 transmembrane family, member 2) #3: GFP, % of control = 177 (active); viability (ATP), % of control = 141
